# Data as given in patent publication US20070276011A1, “Plasminogen Activator Inhibitor-1 Inhibitor” (priority 2003, published 2007).
# Protein sequences, listed by entry. Tags and fused reporters are not part of them. Residues count along the entry.
# UniProt P05121, 24-402: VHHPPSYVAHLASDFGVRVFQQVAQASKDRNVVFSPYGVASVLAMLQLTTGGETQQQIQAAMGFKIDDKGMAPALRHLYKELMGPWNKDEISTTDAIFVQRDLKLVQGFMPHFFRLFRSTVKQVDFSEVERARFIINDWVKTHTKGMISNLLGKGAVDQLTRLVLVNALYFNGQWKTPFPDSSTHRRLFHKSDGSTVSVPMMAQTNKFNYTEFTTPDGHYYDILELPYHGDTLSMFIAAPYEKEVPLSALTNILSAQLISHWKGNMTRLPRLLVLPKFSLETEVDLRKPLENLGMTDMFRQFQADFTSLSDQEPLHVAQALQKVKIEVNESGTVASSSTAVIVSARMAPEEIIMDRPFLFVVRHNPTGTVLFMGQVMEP
# Some results were stated once for a whole list of compounds, not compound by compound.
# Target: recombinant human PAI-1 (Homo sapiens, UniProt P05121)
# Assay: Fibrin clot lysis assay
# Assay type: biochemical
# Settings: concentration of 10 μM or 20 μM
smiles,measurement,value
O=C(Nc1cccc(OC(F)(F)F)c1)c1cc(C=C2SC(=O)N(Cc3ccc(Cl)c(Cl)c3)C2=O)cc(O)c1O [compound 475],reduction of the fibrin lysis time,≥ 50%
